Some of the results follow.
Compound: CC1Cc2ccccc2N1C(=O)C1CCCN(C1)C(=O)CCl (mixture of isomers) [TRIM25 ligand 11 (diastereomer mixture)]
Assay: probe-labelled cysteine peptide fold change vs DMSO (competition) (log2 fold change); higher = less target engagement (more negative = stronger competition)
Details: 50 µM; THP-1; incubation time: 4 h
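Further: competitive chemoproteomic profiling in live THP-1 cells with an iodoacetamide desthiobiotin (IA-DTB) probe, comparing probe-labelled peptide intensities in compound-treated cells against DMSO-treated controls.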

Chains of the proteins cited; added tags and fusions are not shown. Lines headed by an entry give the natural chain unless they say otherwise; changes in a name come on top.
UniProt O96008: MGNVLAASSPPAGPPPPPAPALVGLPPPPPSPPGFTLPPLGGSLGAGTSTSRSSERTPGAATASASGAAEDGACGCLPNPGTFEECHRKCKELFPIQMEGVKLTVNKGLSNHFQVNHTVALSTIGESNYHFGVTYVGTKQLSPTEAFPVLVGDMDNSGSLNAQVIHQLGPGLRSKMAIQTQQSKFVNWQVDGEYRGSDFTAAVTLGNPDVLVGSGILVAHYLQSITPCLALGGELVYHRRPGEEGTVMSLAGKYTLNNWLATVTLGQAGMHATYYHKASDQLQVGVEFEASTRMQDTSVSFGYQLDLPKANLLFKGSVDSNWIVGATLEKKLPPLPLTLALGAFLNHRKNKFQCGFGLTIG
UniProt Q92544: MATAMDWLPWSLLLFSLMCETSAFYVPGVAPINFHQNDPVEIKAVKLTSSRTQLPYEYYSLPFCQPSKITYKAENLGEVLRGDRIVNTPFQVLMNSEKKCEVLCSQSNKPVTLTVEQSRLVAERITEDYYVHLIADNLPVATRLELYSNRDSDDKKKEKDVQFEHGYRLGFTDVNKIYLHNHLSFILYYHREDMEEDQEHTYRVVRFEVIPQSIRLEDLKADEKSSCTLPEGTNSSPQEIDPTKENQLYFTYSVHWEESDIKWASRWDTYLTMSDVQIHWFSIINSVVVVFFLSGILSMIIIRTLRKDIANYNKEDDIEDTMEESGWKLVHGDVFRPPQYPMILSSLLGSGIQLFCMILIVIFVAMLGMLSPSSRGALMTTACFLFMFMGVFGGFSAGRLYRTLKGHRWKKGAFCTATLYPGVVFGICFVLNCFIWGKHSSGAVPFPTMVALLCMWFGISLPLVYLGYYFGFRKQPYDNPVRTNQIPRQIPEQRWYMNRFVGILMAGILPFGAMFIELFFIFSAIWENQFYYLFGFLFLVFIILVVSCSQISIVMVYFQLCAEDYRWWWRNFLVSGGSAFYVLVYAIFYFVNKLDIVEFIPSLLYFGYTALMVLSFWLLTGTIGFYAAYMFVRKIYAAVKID
UniProt Q9Y4G6: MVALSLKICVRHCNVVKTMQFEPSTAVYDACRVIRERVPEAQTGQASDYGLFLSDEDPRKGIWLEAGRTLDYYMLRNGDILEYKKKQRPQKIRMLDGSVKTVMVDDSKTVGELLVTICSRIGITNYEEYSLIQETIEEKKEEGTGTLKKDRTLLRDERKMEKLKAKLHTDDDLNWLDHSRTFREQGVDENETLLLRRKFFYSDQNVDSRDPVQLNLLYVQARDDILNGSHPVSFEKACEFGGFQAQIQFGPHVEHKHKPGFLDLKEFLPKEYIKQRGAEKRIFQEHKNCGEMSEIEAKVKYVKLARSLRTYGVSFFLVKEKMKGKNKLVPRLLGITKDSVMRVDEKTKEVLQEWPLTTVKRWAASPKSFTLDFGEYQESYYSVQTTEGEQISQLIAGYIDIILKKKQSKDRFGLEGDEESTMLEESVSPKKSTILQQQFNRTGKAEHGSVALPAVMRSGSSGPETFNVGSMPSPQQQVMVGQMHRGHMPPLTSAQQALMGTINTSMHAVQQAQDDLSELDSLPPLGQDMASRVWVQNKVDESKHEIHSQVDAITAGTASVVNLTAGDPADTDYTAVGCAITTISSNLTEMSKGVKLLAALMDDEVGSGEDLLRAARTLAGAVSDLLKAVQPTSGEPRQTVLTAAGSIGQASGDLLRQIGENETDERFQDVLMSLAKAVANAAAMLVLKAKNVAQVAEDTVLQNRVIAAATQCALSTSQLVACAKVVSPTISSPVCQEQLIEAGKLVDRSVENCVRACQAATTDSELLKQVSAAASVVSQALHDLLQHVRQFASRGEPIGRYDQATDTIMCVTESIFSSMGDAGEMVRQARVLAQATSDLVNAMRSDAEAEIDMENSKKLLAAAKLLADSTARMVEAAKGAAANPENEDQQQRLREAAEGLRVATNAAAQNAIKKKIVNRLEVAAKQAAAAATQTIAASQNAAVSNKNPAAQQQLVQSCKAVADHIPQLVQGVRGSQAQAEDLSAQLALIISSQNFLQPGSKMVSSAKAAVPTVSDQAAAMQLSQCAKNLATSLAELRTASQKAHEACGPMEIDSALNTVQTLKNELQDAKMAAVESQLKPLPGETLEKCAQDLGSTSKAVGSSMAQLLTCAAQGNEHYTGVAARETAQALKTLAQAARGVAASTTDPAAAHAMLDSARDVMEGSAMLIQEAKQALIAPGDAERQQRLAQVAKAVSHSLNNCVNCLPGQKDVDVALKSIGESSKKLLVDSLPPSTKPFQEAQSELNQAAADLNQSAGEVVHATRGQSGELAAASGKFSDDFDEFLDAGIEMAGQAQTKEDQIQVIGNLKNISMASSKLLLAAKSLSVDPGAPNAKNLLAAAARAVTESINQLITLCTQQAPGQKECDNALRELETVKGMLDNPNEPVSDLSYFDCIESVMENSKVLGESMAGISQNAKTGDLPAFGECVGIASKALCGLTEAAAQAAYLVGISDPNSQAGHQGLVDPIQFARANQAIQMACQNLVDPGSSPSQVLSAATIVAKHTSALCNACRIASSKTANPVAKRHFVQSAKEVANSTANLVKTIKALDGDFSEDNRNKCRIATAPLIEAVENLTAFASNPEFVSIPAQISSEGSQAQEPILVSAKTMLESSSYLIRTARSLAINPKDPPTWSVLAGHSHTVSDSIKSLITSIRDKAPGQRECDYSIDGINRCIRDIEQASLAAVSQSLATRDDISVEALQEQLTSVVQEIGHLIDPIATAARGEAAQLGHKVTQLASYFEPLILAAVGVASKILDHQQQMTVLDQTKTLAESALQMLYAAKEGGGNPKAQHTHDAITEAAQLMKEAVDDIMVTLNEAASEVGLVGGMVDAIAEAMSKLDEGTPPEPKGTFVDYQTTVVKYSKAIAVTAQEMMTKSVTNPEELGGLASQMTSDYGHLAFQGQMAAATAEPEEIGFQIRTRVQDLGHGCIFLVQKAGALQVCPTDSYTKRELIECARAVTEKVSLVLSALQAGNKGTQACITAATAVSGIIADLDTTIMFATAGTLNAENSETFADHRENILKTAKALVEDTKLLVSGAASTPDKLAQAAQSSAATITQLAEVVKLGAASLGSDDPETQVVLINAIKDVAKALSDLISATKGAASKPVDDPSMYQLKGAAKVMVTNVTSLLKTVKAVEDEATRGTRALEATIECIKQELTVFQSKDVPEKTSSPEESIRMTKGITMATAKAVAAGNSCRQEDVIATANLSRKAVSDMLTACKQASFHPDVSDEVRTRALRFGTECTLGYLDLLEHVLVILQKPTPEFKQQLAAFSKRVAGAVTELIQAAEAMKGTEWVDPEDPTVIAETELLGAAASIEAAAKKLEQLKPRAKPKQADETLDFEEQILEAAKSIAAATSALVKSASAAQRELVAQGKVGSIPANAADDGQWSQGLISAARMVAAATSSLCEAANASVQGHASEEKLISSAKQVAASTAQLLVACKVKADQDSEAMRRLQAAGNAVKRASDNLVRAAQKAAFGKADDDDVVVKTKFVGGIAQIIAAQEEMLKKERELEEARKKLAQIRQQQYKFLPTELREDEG
UniProt Q68CZ2: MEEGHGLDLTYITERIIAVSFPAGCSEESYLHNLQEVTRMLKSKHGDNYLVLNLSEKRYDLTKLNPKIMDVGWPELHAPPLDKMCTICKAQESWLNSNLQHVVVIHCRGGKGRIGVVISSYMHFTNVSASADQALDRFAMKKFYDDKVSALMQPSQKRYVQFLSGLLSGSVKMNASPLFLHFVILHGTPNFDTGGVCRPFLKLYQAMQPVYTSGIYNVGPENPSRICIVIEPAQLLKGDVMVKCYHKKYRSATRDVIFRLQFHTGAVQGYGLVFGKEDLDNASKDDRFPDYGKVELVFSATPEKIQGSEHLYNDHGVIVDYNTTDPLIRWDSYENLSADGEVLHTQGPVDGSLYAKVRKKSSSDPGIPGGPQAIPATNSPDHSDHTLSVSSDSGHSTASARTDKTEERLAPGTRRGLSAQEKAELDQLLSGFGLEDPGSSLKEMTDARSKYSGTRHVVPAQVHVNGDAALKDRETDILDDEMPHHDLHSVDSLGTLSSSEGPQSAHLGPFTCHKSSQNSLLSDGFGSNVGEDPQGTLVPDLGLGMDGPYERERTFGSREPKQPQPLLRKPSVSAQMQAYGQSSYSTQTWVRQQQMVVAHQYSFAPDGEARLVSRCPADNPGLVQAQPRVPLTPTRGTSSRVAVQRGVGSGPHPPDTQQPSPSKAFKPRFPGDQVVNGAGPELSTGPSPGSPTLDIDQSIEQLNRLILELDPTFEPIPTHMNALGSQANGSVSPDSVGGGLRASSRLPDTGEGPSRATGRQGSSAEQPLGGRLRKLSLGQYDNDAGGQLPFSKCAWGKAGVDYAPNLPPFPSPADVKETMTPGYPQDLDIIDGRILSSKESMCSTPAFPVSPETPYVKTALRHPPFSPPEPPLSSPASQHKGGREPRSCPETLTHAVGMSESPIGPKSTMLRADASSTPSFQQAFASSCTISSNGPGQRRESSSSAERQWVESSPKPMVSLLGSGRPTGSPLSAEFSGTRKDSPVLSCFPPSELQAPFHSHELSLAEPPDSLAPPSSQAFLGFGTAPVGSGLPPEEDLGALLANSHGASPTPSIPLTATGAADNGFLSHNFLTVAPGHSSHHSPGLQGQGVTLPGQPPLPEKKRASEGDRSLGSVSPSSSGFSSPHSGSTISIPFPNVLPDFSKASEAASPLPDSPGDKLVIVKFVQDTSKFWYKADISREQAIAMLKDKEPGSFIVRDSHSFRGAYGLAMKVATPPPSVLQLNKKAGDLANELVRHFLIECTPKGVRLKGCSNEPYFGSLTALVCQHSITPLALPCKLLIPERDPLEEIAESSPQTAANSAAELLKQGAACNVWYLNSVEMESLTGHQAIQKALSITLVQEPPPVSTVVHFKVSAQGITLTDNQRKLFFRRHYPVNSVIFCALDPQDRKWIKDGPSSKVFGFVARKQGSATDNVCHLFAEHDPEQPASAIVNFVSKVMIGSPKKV
UniProt Q9BVK8: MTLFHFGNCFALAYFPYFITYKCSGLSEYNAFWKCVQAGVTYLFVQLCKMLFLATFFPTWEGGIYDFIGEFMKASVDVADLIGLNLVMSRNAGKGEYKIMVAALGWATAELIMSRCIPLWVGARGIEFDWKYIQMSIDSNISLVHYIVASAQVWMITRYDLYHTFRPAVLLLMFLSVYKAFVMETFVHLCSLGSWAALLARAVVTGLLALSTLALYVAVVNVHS
UniProt P11387: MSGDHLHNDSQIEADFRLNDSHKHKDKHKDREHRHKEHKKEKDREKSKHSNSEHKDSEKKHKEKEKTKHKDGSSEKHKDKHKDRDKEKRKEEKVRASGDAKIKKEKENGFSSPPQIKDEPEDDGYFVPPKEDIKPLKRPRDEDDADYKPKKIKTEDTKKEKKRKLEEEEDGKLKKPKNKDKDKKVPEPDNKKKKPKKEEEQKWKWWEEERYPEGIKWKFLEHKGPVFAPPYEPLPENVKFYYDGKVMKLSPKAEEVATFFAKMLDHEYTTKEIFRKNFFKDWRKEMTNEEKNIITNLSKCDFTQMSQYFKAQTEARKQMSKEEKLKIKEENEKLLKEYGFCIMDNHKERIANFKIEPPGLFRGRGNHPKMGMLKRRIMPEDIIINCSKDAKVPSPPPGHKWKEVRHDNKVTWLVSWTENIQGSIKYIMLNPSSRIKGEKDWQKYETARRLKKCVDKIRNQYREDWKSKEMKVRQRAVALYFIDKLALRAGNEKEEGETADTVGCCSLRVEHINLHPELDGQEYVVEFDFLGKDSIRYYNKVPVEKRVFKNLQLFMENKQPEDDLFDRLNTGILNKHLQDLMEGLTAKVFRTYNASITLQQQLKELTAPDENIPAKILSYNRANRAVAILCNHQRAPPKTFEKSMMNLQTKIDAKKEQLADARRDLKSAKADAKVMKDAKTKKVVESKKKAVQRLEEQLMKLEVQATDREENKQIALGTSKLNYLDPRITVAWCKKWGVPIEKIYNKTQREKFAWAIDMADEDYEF

Row | Target | probe-labelled cysteine peptide fold change
1 | TOMM40_O96008_354_FQCGFGLTIG (UniProt O96008) | 0.0231
2 | TM9SF4_Q92544_227_SSCTLPEGTNSSPQEIDPTK (UniProt Q92544) | -0.149
3 | TLN2_Q9Y4G6_1663_ECDYSIDGINR (UniProt Q9Y4G6) | -0.038
4 | TNS3_Q68CZ2_227_ICIVIEPAQLLK (UniProt Q68CZ2) | -0.0238
5 | TMEM147_Q9BVK8_116_CIPLWVGAR (UniProt Q9BVK8) | 0.193
6 | TOP1_P11387_504_EEGETADTVGCCSLR (UniProt P11387) | 0.242
7 | TOP2A_P11388_733_KVLFTCFK (UniProt P11388) | -0.314
